The supplement of paper PMC12067093, “Discovery and optimisation of a covalent ligand for TRIM25 and its application to targeted protein ubiquitination” (Chemical Science, 2025)
The list shows a part of the results.

The chains behind the UniProt entries cited, without tags or fusion partners. Where a name states a change or a piece, a line headed by the entry shows the natural chain unless it says otherwise.
UniProt Q9HCD5: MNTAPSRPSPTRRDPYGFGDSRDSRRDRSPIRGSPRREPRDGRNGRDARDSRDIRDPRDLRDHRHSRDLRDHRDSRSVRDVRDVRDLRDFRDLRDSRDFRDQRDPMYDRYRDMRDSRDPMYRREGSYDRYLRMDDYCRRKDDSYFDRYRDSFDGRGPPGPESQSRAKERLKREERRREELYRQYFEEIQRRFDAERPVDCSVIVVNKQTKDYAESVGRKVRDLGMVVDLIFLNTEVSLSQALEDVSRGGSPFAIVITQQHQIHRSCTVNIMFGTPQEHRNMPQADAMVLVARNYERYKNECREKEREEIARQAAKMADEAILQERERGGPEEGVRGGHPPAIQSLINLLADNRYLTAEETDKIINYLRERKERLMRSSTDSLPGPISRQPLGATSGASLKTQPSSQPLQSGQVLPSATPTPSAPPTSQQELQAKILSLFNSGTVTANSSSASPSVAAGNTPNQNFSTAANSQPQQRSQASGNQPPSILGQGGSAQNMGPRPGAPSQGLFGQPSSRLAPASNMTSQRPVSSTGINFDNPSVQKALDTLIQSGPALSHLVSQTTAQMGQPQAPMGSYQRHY
UniProt Q9Y618, whole entry, looked up: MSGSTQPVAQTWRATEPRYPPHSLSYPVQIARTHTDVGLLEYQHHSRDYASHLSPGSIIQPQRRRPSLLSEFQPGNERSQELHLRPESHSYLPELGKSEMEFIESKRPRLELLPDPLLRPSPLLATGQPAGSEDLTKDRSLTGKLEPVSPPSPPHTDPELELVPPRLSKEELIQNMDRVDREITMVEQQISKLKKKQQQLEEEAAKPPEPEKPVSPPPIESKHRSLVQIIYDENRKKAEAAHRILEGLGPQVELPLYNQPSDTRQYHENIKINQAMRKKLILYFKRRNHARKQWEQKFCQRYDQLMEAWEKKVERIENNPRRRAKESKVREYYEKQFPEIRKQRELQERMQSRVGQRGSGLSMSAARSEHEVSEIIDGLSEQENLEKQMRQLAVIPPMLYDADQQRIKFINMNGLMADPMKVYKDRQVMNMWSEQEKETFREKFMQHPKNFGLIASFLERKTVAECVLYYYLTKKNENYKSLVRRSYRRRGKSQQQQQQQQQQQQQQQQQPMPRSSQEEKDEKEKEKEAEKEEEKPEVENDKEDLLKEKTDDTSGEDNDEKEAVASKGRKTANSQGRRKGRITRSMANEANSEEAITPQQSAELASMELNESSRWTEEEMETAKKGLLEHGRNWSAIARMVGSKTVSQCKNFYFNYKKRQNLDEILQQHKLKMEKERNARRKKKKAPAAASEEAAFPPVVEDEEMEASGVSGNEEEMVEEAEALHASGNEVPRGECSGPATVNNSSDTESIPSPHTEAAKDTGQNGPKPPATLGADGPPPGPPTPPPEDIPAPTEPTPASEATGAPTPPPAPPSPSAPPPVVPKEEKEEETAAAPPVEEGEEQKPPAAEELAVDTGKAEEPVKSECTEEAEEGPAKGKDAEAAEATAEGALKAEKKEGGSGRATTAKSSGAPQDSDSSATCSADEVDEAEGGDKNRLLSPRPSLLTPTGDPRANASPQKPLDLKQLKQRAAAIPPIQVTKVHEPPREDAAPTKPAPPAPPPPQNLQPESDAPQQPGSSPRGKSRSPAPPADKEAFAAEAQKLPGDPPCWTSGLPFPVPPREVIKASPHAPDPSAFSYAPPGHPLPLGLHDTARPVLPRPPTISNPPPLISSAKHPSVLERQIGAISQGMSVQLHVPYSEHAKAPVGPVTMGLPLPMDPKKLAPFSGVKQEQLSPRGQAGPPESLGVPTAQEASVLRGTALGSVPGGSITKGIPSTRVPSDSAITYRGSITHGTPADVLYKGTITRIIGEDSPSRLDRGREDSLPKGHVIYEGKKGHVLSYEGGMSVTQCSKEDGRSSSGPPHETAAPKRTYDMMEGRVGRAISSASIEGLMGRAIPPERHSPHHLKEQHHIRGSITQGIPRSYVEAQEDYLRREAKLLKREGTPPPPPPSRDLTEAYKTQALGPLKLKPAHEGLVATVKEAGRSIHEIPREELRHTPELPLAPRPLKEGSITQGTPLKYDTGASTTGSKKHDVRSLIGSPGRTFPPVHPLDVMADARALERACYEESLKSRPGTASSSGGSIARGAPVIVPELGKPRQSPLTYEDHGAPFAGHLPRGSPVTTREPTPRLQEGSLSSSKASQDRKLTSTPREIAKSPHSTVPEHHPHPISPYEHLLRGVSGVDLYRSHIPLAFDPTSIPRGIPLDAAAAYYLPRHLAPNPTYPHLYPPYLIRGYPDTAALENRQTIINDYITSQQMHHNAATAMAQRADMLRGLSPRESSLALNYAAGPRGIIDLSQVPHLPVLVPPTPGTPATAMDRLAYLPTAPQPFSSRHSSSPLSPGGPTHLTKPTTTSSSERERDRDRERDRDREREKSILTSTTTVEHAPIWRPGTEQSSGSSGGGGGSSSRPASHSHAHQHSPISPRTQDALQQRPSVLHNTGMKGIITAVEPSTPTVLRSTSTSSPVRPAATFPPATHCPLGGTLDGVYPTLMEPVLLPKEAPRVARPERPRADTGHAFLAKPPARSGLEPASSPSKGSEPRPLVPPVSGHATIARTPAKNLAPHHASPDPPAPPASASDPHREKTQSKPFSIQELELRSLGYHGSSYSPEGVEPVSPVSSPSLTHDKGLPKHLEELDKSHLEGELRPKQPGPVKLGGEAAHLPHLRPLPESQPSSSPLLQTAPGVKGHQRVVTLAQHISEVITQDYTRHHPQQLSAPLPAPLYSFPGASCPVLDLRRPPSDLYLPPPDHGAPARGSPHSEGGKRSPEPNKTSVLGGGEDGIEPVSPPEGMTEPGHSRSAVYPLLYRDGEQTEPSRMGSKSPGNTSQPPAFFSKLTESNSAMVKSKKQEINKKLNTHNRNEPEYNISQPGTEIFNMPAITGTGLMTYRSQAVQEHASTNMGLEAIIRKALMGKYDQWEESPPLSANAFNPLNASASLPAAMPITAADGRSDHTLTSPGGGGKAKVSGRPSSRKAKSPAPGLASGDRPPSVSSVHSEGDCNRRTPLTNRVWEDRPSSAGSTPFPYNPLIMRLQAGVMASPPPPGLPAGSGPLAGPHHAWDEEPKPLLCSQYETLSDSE
UniProt O14777: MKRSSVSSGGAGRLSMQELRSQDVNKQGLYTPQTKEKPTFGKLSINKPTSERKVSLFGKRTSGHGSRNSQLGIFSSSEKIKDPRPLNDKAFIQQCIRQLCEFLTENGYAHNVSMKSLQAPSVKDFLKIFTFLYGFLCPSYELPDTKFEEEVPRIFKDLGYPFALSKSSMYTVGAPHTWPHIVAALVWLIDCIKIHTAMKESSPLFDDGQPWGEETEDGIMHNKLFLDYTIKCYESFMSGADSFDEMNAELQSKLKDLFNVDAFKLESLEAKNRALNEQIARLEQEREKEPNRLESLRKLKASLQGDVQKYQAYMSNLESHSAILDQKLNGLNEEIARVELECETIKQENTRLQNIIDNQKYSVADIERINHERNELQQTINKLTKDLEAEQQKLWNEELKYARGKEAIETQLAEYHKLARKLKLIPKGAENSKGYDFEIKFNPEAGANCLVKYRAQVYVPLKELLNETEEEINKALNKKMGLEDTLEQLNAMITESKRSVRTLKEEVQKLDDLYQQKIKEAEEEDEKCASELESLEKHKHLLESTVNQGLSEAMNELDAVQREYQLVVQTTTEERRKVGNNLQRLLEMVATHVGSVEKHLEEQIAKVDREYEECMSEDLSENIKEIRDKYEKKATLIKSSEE
UniProt Q92597: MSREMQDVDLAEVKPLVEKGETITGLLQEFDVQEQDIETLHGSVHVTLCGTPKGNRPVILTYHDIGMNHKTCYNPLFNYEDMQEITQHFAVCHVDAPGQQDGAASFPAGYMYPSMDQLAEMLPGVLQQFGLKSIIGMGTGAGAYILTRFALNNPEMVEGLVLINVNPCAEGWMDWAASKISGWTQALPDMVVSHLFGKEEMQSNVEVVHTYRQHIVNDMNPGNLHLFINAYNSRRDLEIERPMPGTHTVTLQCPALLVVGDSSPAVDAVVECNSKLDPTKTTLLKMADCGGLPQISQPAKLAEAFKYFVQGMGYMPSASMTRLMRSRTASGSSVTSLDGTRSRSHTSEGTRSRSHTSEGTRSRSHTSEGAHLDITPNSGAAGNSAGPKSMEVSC
UniProt P35240: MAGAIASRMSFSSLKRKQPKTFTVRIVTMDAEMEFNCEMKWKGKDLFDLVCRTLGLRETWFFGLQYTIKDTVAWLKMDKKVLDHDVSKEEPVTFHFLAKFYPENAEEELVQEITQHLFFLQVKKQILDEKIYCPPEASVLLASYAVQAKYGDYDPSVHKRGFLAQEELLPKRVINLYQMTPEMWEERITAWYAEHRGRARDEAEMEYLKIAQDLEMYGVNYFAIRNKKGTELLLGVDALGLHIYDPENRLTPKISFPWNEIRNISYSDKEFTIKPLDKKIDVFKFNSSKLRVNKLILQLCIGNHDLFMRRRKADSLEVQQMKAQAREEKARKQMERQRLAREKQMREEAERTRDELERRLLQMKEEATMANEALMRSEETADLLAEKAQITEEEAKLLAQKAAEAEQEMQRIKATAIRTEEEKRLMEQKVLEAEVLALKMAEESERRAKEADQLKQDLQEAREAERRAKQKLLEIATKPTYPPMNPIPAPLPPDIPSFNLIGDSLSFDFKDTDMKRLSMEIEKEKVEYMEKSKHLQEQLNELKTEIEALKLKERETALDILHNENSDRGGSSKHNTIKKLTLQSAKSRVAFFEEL
UniProt Q8TD19: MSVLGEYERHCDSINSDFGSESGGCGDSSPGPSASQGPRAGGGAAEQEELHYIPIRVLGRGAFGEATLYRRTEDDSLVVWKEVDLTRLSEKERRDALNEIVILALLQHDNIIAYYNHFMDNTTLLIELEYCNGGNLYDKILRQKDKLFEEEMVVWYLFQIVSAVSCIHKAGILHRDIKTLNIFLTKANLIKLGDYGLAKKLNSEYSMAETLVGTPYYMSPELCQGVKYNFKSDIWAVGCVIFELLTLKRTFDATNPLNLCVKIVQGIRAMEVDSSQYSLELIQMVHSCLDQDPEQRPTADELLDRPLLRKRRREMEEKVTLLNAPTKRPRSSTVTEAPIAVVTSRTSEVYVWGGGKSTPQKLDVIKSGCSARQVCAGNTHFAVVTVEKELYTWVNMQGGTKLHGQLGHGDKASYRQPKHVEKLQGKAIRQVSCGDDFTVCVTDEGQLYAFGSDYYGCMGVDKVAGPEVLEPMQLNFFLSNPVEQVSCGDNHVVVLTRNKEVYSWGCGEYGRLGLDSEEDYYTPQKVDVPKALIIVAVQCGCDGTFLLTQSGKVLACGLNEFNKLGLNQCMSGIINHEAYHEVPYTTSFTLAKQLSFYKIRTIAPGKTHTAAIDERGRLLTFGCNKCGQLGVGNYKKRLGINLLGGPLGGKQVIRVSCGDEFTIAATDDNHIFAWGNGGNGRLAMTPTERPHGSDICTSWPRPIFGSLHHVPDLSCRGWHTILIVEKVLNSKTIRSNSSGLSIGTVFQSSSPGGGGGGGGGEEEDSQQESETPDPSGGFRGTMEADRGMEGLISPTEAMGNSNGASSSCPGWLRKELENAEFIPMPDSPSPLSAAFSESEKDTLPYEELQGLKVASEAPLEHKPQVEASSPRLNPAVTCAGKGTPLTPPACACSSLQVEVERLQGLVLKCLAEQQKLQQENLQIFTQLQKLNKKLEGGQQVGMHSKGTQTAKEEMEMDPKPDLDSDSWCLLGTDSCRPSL
UniProt Q9UFN0: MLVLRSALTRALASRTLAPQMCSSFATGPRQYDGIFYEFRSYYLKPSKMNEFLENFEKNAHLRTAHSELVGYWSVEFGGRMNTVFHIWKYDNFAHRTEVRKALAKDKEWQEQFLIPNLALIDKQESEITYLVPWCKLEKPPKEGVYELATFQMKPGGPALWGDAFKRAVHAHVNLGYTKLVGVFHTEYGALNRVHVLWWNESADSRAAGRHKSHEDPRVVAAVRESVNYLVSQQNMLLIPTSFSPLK
UniProt Q8IXH7, whole entry, looked up: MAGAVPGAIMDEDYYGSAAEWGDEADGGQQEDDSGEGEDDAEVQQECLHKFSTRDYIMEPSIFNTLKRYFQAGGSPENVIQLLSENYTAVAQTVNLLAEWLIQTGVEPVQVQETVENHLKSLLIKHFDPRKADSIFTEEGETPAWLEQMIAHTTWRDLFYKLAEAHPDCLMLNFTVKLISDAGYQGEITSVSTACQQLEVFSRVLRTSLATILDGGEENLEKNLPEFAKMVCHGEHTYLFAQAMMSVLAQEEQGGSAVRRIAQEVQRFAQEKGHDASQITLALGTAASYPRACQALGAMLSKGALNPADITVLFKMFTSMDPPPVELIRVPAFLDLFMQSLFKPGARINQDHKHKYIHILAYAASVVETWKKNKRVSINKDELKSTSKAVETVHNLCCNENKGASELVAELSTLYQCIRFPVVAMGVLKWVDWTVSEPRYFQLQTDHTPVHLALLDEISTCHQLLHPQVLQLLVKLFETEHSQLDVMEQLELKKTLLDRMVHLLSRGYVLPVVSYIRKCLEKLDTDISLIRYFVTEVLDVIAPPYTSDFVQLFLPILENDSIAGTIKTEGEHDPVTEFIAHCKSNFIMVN

compound: Cc1cc(ccc1-c1ccccc1)C(=O)N1CCCN(CC1)C(=O)CCl [compound 10]; experiment: probe-labelled cysteine peptide fold change vs DMSO (competition) (log2 fold change); higher = less target engagement (more negative = stronger competition); conditions: 10 µM; THP-1; incubation time: 4 h
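Further: competitive profiling in live THP-1 cells: cysteine peptides tagged with an iodoacetamide desthiobiotin (IA-DTB) probe, intensity after compound treatment relative to DMSO-treated cells.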

| Target | probe-labelled cysteine peptide fold change |
| --- | --- |
| NCOA5_Q9HCD5_301_YKNECR (UniProt Q9HCD5) | 0.0517 |
| NCOR2_Q9Y618_866_SECTEEAEEGPAK (UniProt Q9Y618) | 0.186 |
| NCOA5_Q9HCD5_266_SCTVNIMFGTPQEHR (UniProt Q9HCD5) | 0.243 |
| NDC80_O14777_100_QLCEFLTENGYAHNVSMK (UniProt O14777) | 0.0109 |
| NIPBL_Q6KC79_52_IAEEVNCLLACRDDNLVSQLVHSLNQVSTDHIELK (UniProt Q6KC79) | 0.0486 |
| NDRG1_Q92597_394_SMEVSC (UniProt Q92597) | -0.504 |
| NEK1_Q96PY6_276_FLSPQLIAEEFCLK (UniProt Q96PY6) | -0.0505 |
| NCKIPSD_Q9NZQ3_376_DLSMALPSGQVCHDQQR (UniProt Q9NZQ3) | 0.189 |
| NF2_P35240_133_IYCPPEASVLLASYAVQAK (UniProt P35240) | -0.114 |
| NID1_P14543_685_EGSPDALQNPCYIGTHGCDTNAACRPGPR (UniProt P14543) | 0.398 |
| NEK9_Q8TD19_569_LGLNQCMSGIINHEAYHEVPYTTSFTLAK (UniProt Q8TD19) | 0.015 |
| NCLN_Q969V3_84_RCVLMR (UniProt Q969V3) | -0.141 |
| NIN_Q8N4C6_695_EAHHEATCR (UniProt Q8N4C6) | 0.152 |
| NFKBIE_O00221_457_GLMGISSTLCK (UniProt O00221) | 0.109 |
| NF1_P21359_509_LLLCNPR (UniProt P21359) | -0.0497 |
| NCOR2_Q9Y618_1503_ACYEESLK (UniProt Q9Y618) | -0.221 |
| NGLY1_Q96IV0_283+286_EVEDHYCDACQFSNRFPR (UniProt Q96IV0) | -0.135 |
| NIPSNAP3A_Q9UFN0_135_QESEITYLVPWCK (UniProt Q9UFN0) | 0.151 |
| NET1_Q7Z628_267_GYCSNQLAAK (UniProt Q7Z628) | 0.0796 |
| NDUFV2_P19404_135+140_YHIQVCTTTPCMLR (UniProt P19404) | 0.0889 |
| NELFCD_Q8IXH7_417_GASELVAELSTLYQCIR (UniProt Q8IXH7) | 0.211 |
| NIT2_Q9NQR4_170_GCQLLVYPGAFNLTTGPAHWELLQR (UniProt Q9NQR4) | 0.0882 |

Some of the entries above, reformatted.
Target	probe-labelled cysteine peptide fold change
NCOA5_Q9HCD5_301_YKNECR (UniProt Q9HCD5)	0.0517
NCOR2_Q9Y618_866_SECTEEAEEGPAK (UniProt Q9Y618)	0.186
NCOA5_Q9HCD5_266_SCTVNIMFGTPQEHR (UniProt Q9HCD5)	0.243
NDC80_O14777_100_QLCEFLTENGYAHNVSMK (UniProt O14777)	0.0109
NIPBL_Q6KC79_52_IAEEVNCLLACRDDNLVSQLVHSLNQVSTDHIELK (UniProt Q6KC79)	0.0486
